Results: PubChem BioAssay AID1671190 (National Center for Advancing Translational Sciences (NCATS), 2021)
In all, about 580,000 compounds went through this assay and about 6,100 (1.1%) were called active. The shares of active, inactive and inconclusive entries below differ from those in the screen. Calls follow the shape of the dose curve; as a rule, active = well fitted inhibition curve with a large enough effect; inconclusive = small, poorly fitted or top-dose-only effect, or another doubt; inactive = no such curve, though single readings can be large or run the other way. Potencies beside an inconclusive call are fits to weak or partial responses and may not hold up.

By UniProt entry, the sequences of proteins in these tests, tags left out. Where a name states a change or a piece, a line headed by the entry shows the natural chain unless it says otherwise.
UniProt P18054: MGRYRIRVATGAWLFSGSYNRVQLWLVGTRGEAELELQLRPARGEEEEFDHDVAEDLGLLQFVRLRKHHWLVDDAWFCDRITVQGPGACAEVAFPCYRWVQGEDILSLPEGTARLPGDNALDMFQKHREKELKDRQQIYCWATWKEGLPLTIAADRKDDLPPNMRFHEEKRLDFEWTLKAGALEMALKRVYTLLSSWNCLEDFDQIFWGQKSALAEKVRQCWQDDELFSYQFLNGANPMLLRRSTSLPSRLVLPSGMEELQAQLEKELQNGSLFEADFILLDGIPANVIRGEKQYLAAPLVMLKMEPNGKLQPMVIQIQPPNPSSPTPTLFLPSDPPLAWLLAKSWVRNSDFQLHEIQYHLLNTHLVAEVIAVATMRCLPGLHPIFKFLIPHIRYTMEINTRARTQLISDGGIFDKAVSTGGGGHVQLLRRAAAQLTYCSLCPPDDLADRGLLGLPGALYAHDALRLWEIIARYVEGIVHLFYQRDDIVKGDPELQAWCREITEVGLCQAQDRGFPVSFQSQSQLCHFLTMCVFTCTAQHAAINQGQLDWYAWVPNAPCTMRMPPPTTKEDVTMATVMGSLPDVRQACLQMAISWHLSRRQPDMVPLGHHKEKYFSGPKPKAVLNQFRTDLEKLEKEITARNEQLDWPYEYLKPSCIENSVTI

biological target: Polyunsaturated fatty acid lipoxygenase ALOX12 (Homo sapiens) (UniProt P18054); experiment: Primary qHTS assay for inhibitors of human arachidonate 12S-lipoxygenase (ALOX12): Round 2; conditions: purified 12hLO, xylenol orange hydroperoxide absorbance; activity change, negative = inhibition: at 108 µM (top of the series) unless noted
Summary of the method: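 Hydroperoxide product was detected by ferrous iron/xylenol orange as the 573 to 405 nm absorbance ratio. Arachidonic acid at 40 uM (final) was turned over for 30 min at room temperature by 150 nM human 12hLO, pH 7.0 Hepes buffer, after 15 min compound preincubation.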
% is scaled to controls: 0 for no effect and ±100 for the full control effect; potency is read from the fitted curve at half-maximal effect.

| Compound | Potency | activity change, negative = inhibition |
| --- | --- | --- |
| N#CCCC(C#N)Cn1nc(-c2ccccc2)c2ccccc2c1=O (centres undefined) | inconclusive: 31.6 µM [inhibitor, partial curve, poor fit] |  |
| COc1ccc(-c2nc3ccc(Cl)cn3c2Cc2cccc(Cl)c2)cc1OC | inconclusive: 28.2 µM [inhibitor, partial curve] |  |
| CCC(=O)N/C(N)=N/c1nc2ccccc2o1 |  | inactive: 248% |
| O=C(COC(=O)c1cc([N+](=O)[O-])ccc1NCCO)c1ccccc1 |  | inactive: -27.5% |
| CC(=O)OCC1(C)CN(c2ccccc2)NC1=O (centres undefined) | active: 39.8 µM |  |
| Cc1ccc(C(C)C)c(OCC(O)CNCc2ccccc2)c1 (centres undefined) | inconclusive: 112 µM [inhibitor, single point] |  |
| Cc1ccc(C)c(NC(=S)NNC(=O)c2cc3c(s2)CCC(C)C3)c1 (centres undefined) | inconclusive: 50.1 µM [inhibitor, single point] |  |
| Cc1ccc(-c2noc(-c3ccc(Br)o3)n2)s1 | inconclusive: 4.47 µM [inhibitor, partial curve, poor fit] |  |
| CC(CN1CCOCC1)OC(=O)COc1ccc(Br)cc1 (centres undefined) | inconclusive: 22.4 µM [inhibitor, full curve, poor fit] |  |
| CCC1NC(=O)c2ccccc2N1c1cccc(Cl)c1 (centres undefined) | inconclusive: 79.4 µM [inhibitor, partial curve, poor fit] |  |
| Fc1ccc(/C=N/Nc2cc(C(F)(F)F)ccc2Cl)c(F)c1 | inconclusive: 44.7 µM [inhibitor, partial curve, poor fit] |  |
| Cc1cc(N2CCCC2)nc(Nc2ccc(NC(=O)c3c(F)cccc3F)cc2)n1 | inconclusive: 89.1 µM [inhibitor, single point] |  |
| Cc1[nH]c(=O)nc(SCc2ccc(Cl)c(Cl)c2)c1C#N | inconclusive: 79.4 µM [inhibitor, partial curve, poor fit] |  |
| CC1C/C(=N/NC(=S)Nc2ccc(SC(F)F)cc2)CC(C)(C)C1 (centres undefined) | active: 28.2 µM |  |
| O=C(c1ccc([N+](=O)[O-])cc1)n1nc(-c2ccccc2)nc1NCc1ccc(F)cc1 | inconclusive: 50.1 µM [inhibitor, partial curve, poor fit] |  |
| COc1cccc(CNC(=O)COc2cccc3c2OC(C)(C)C3)c1 |  | inactive: -25% |
| C=CCn1c(COc2ccccc2)nnc1SCC(=O)O | inconclusive: 20 µM [inhibitor, partial curve, poor fit] |  |
| COc1ccc(NS(=O)(=O)c2cccc(C(=O)NNC(=O)c3ccc(Br)o3)c2)cc1 |  | inactive: -11% |
| CN(C)C(=O)C(F)(F)C(F)(F)C(F)(F)C(F)(F)C(=O)N(C)C |  | inactive: -9.84% |
